Results taken from publication PMC8548325.
These are yes or no findings as the source states them, for the method shown.

Sequences of proteins named here, by UniProt entry; tags and fusion partners are left off. Residues count along the entry.
UniProt Q5ZTK4, residues 231-1190: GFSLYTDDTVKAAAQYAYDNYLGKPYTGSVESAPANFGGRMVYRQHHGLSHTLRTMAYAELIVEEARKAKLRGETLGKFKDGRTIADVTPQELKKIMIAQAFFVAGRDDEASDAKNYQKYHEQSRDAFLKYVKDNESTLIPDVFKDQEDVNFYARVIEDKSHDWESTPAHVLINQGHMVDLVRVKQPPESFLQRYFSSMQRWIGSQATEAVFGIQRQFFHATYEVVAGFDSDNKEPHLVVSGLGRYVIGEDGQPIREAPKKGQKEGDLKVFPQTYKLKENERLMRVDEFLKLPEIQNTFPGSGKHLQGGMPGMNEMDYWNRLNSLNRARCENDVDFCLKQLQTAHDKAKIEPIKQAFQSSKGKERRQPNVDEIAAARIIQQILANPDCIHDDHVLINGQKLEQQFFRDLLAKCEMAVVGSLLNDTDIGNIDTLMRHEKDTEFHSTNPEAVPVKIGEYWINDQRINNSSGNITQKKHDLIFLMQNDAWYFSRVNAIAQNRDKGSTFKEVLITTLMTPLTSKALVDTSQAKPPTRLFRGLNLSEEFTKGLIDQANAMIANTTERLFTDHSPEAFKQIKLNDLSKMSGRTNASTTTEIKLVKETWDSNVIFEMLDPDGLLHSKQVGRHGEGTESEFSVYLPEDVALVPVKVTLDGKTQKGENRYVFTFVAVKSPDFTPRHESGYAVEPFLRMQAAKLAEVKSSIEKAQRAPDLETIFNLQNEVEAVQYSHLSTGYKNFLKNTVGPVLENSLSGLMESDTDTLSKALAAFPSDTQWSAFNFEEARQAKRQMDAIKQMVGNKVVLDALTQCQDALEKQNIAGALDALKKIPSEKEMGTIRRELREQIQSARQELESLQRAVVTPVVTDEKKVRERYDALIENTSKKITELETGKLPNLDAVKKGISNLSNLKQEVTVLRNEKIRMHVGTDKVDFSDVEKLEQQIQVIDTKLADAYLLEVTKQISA

Target: SdeA (residues 231 to 1190 containing both PDE and mART domains) (Legionella pneumophila) (UniProt Q5ZTK4)
Test: SEC; both purified

SdeA (residues 231 to 1190 containing both PDE and mART domains) (from UniProt Q5ZTK4 231-1190) (domain or fragment)
binding: no binding (tested: 0.5 mg/mL)
